Assay [1] deals with T1, cadherin-17 (CDH17), ELISA antigen (UniProt Q12864 23-787, limits assumed).
T1 construct: also called liver-intestine cadherin
Kind of assay: ELISA. For orientation: In an ELISA, binding on a coated surface is turned into a signal by an enzyme label.

By UniProt entry, the sequences of proteins in these tests, tags left out. Residues count along the entry.
UniProt Q12864, residues 23-787: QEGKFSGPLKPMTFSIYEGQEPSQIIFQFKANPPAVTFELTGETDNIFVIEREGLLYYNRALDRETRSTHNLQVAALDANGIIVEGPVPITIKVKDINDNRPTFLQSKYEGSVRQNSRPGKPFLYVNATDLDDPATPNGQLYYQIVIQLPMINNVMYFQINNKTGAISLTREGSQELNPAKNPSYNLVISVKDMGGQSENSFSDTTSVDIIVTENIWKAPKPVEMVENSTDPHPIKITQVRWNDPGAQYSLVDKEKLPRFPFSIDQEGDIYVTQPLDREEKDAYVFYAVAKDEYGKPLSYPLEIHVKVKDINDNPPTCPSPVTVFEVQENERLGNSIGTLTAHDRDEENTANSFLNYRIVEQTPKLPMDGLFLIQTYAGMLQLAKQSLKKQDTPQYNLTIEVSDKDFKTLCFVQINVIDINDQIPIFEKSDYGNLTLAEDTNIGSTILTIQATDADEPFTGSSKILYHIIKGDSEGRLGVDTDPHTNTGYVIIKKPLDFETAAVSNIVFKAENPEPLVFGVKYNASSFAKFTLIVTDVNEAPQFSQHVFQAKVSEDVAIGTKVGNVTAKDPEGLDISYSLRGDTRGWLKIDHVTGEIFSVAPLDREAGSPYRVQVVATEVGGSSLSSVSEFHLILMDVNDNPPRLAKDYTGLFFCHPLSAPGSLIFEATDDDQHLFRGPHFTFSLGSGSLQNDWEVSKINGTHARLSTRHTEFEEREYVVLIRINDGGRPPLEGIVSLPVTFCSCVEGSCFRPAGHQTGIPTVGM

Assay [2] deals with cadherin-17 (CDH17), ELISA antigen (UniProt Q12864). Put plainly: ELISA.

Positions count from the first letter of the chain named. Results are given in words; binding and its absence hold for the method and conditions named. Some results given as binding are weak or reduced against the parent protein; the word gives no strength.

This note sets out measurements from patent US20190046655A1 (ARBELE, published 2019).

B1: Lic5 scFv (scFv, V domains shown)
VH: EVQLEESGGGLVKPGGSLKLPCAASGSSFSDFYMYWVRQTPEKRLEWVASISFDGTYTYYTDRVKGRFTISRDNAKNNLYLQMSSLKSEDTAMYYCARDRPAWFPYWGQGTLVTVSA
VL: DIVLTQTTLSLNVSLGDQASISCRSSQSIVHSNGNTYLEWYLQRPGQSPKLLIYKVSNRFSGVPDRFSGSGSGTDFTLKISRVEAEDLGVYYCFQGSHVPLTFGAGTKLELKR
notes: Tested as a single-chain Fv; also called scFv lic5; mouse CDH17 antibody Lic5 scFv
For the molecule B1, in assay [1], the binding result is on record as “binds”.

B2: Lic3 scFv (scFv, V domains shown)
VH: B1 VH with E5V, P21S, S27F, F32Y, T40A
VL: DVLMTQIPLSLTVSLGDQASISCRSSQSIVHSNGNTYLEWYLQRPGQSPKLLIYKVSNRFSGVPDRFSGSGSGTDFTLKISRVEAEDLGVYYCFQGSHVPLTFGAGTKLELK
notes: Tested as a single-chain Fv; also called scFv lic 3; mouse CDH17 antibody Lic3 scFv
For the molecule B2, the binding result in assay [2] is on record as “binds”.
